# Laboratory results published in the supplement of paper PMC8728848.
# The list shows a part of the results.
# B1: SrpA (Streptococcus sanguis) (protein)
# chain: SSKSESTVNSQSASSETNRSSTNNGSTSSSSETARVRKRRATDTTPPTITVPSDIIAYRGEEFEFYFEITDDSGQVKNIELSTFGKPLGLNWLEYSEDNFNVPGNATSDNPLRVRVHGTVPLNEPIPADKNRAQFTRTIRAWDAAGNVSSNITFVIKYRAQTDKYNPADPTITYVDRLSSLSPSEKNAVEAAVRAANPQIPAAARITVSANGTVTITYPDSSTDTITANRVVKDLASSRSALT
# Experiments:
# Assay in all cases: glycan array binding signal (z-score within array); higher = stronger binding
# Conditions in all cases: glycan notation: IUPAC condensed, linker removed
# [1] = biological target: GlcNAc(b1-2)Gal(b1-3)GalNAc
# Summary of the method: (§1)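 Arrays were curated from the Consortium for Functional Glycomics database, 3228 in total, and kept only where the protein sequence was available. Binding is expressed as a within-array Z-score. This score was averaged across arrays of the same protein sequence at different concentrations or buffers and across linkers, and negative values can be read as non-binding.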
# [2] = biological target: GlcNAc(b1-2)Man(a1-3)[GlcNAc(b1-2)Man(a1-6)]Man(b1-4)GlcNAc(b1-4)GlcNAc
# Summary of the method: as §1
# GlcNAc(b1-3)Gal = biological target: GlcNAc(b1-3)Gal
# Summary of the method: as §1
# [3] = biological target: GlcNAc(b1-3)Gal(b1-3)GalNAc
# Summary of the method: as §1
# GlcNAc(b1-3)Gal(b1-4)Glc = biological target: GlcNAc(b1-3)Gal(b1-4)Glc
# Summary of the method: as §1
# [4] = biological target: GlcNAc(b1-3)Gal(b1-4)GlcNAc
# Summary of the method: as §1
# [5] = biological target: GlcNAc(b1-3)Gal(b1-4)GlcNAc(b1-3)Gal(b1-4)GlcNAc
# Summary of the method: as §1
# GlcNAc(b1-3)GalNAc = biological target: GlcNAc(b1-3)GalNAc
# Summary of the method: as §1
# [6] = biological target: GlcNAc(b1-3)[GlcNAc(b1-4)][GlcNAc(b1-6)]GlcNAc
# Summary of the method: as §1
# [7] = biological target: GlcNAc(b1-3)[GlcNAc(b1-6)]Gal(b1-4)GlcNAc
# Summary of the method: as §1
# [8] = biological target: GlcNAc(b1-3)[GlcNAc(b1-6)]GalNAc
# Summary of the method: as §1
# [9] = biological target: GlcNAc(b1-4)Gal(b1-4)GlcNAc
# Summary of the method: as §1
# [10] = biological target: GlcNAc(b1-4)GlcNAc(b1-4)GlcNAc
# Summary of the method: as §1
# [11] = biological target: GlcNAc(b1-4)GlcNAc(b1-4)GlcNAc(b1-4)GlcNAc(b1-4)GlcNAc
# Summary of the method: as §1
# [12] = biological target: GlcNAc(b1-4)GlcNAc(b1-4)GlcNAc(b1-4)GlcNAc(b1-4)GlcNAc(b1-4)GlcNAc
# Summary of the method: as §1
# [13] = biological target: GlcNAc(b1-4)[GlcNAc(b1-6)]GalNAc
# Summary of the method: as §1
# [14] = biological target: GlcNAc(b1-6)Gal(b1-4)GlcNAc
# Summary of the method: as §1
# GlcNAc(b1-6)GalNAc = biological target: GlcNAc(b1-6)GalNAc
# Summary of the method: as §1
# Kdn(a2-3)Gal(b1-3)GlcNAc = biological target: Kdn(a2-3)Gal(b1-3)GlcNAc
# Summary of the method: as §1
# Kdn(a2-3)Gal(b1-4)GlcNAc = biological target: Kdn(a2-3)Gal(b1-4)GlcNAc
# Summary of the method: as §1
# [15] = biological target: Man(a1-2)Man(a1-2)Man(a1-3)Man
# Summary of the method: as §1
# [16] = biological target: Man(a1-2)Man(a1-2)Man(a1-6)[Man(a1-3)]Man
# Summary of the method: as §1
# Man(a1-2)Man(a1-3)Man = biological target: Man(a1-2)Man(a1-3)Man
# Summary of the method: as §1
# [17] = biological target: Man(a1-2)Man(a1-3)[Man(a1-2)Man(a1-6)]Man
# Summary of the method: as §1
# [18] = biological target: Man(a1-2)Man(a1-3)[Man(a1-2)Man(a1-6)]Man(a1-6)[Man(a1-2)Man(a1-2)Man(a1-3)]Man(b1-4)GlcNAc(b1-4)GlcNAc
# Summary of the method: as §1
# [19] = biological target: Man(a1-2)Man(a1-3)[Man(a1-2)Man(a1-6)]Man(a1-6)[Man(a1-3)[Man(a1-6)]Man(a1-6)]Man(b1-4)GlcNAc(b1-4)GlcNAc
# Summary of the method: as §1
# [20] = biological target: Man(a1-2)Man(a1-3)[Man(a1-6)]Man(a1-6)[Man(a1-2)Man(a1-3)]Man(b1-4)GlcNAc(b1-4)GlcNAc
# Summary of the method: as §1
# [21] = biological target: Man(a1-2)Man(a1-6)[Man(a1-3)]Man(a1-6)[Man(a1-2)Man(a1-2)Man(a1-3)]Man(b1-4)GlcNAc(b1-4)GlcNAc
# Summary of the method: as §1
# Man(a1-3)[Man(a1-6)]Man = biological target: Man(a1-3)[Man(a1-6)]Man
# Summary of the method: as §1
# [22] = biological target: Man(a1-3)[Man(a1-6)]Man(a1-6)[Man(a1-3)]Man(b1-4)GlcNAc(b1-4)GlcNAc
# Summary of the method: as §1
# [23] = biological target: Man(a1-3)[Man(a1-6)]Man(b1-4)GlcNAc(b1-4)GlcNAc
# Summary of the method: as §1
# Man(b1-4)GlcNAc = biological target: Man(b1-4)GlcNAc
# Summary of the method: as §1
# Neu5Ac(a2-3)Gal = biological target: Neu5Ac(a2-3)Gal
# Summary of the method: as §1
# [24] = biological target: Neu5Ac(a2-3)Gal(b1-3)GalNAc
# Summary of the method: as §1
# [25] = biological target: Neu5Ac(a2-3)Gal(b1-3)GalNAc(b1-3)Gal(a1-4)Gal(b1-4)Glc
# Summary of the method: as §1
# [26] = biological target: Neu5Ac(a2-3)Gal(b1-3)GalNAc(b1-3)Gal(b1-4)GlcNAc
# Summary of the method: as §1
# [27] = biological target: Neu5Ac(a2-3)Gal(b1-3)GalNAc(b1-4)[Neu5Ac(a2-3)]Gal(b1-4)Glc
# Summary of the method: as §1
# [28] = biological target: Neu5Ac(a2-3)Gal(b1-3)GalNAc6S
# Summary of the method: as §1
# [29] = biological target: Neu5Ac(a2-3)Gal(b1-3)GlcNAc
# Summary of the method: as §1
# [30] = biological target: Neu5Ac(a2-3)Gal(b1-3)GlcNAc(b1-3)Gal(b1-3)GlcNAc
# Summary of the method: as §1
# [31] = biological target: Neu5Ac(a2-3)Gal(b1-3)GlcNAc6S
# Summary of the method: as §1
# [32] = biological target: Neu5Ac(a2-3)Gal(b1-3)[Fuc(a1-4)]GlcNAc
# Summary of the method: as §1
# [33] = biological target: Neu5Ac(a2-3)Gal(b1-3)[Fuc(a1-4)]GlcNAc(b1-3)Gal(b1-4)[Fuc(a1-3)]GlcNAc
# Summary of the method: as §1
# [34] = biological target: Neu5Ac(a2-3)Gal(b1-3)[Neu5Ac(a2-3)Gal(b1-4)]GlcNAc
# Summary of the method: as §1
# [35] = biological target: Neu5Ac(a2-3)Gal(b1-3)[Neu5Ac(a2-6)]GalNAc
# Summary of the method: as §1
binder,measurement,setting,value
B1,glycan array binding signal (z-score),[1],-0.723
same,glycan array binding signal (z-score),[2],-0.43
same,glycan array binding signal (z-score),GlcNAc(b1-3)Gal,-0.658
same,glycan array binding signal (z-score),[3],1.6
same,glycan array binding signal (z-score),GlcNAc(b1-3)Gal(b1-4)Glc,-0.622
same,glycan array binding signal (z-score),[4],-0.543
same,glycan array binding signal (z-score),[5],-0.324
same,glycan array binding signal (z-score),GlcNAc(b1-3)GalNAc,-0.713
same,glycan array binding signal (z-score),[6],-0.657
same,glycan array binding signal (z-score),[7],-0.387
same,glycan array binding signal (z-score),[8],-0.923
same,glycan array binding signal (z-score),[9],-0.791
same,glycan array binding signal (z-score),[10],-0.636
same,glycan array binding signal (z-score),[11],-0.834
same,glycan array binding signal (z-score),[12],-0.67
same,glycan array binding signal (z-score),[13],-0.162
same,glycan array binding signal (z-score),[14],-0.705
same,glycan array binding signal (z-score),GlcNAc(b1-6)GalNAc,-0.323
same,glycan array binding signal (z-score),Kdn(a2-3)Gal(b1-3)GlcNAc,0.272
same,glycan array binding signal (z-score),Kdn(a2-3)Gal(b1-4)GlcNAc,-0.655
same,glycan array binding signal (z-score),[15],-0.723
same,glycan array binding signal (z-score),[16],-0.026
same,glycan array binding signal (z-score),Man(a1-2)Man(a1-3)Man,0.288
same,glycan array binding signal (z-score),[17],-0.848
same,glycan array binding signal (z-score),[18],-0.332
same,glycan array binding signal (z-score),[19],-0.687
same,glycan array binding signal (z-score),[20],0.797
same,glycan array binding signal (z-score),[21],-1.05
same,glycan array binding signal (z-score),Man(a1-3)[Man(a1-6)]Man,-0.094
same,glycan array binding signal (z-score),[22],1.57
same,glycan array binding signal (z-score),[23],-0.474
same,glycan array binding signal (z-score),Man(b1-4)GlcNAc,-0.488
same,glycan array binding signal (z-score),Neu5Ac(a2-3)Gal,-0.752
same,glycan array binding signal (z-score),[24],-0.679
same,glycan array binding signal (z-score),[25],-0.702
same,glycan array binding signal (z-score),[26],-0.695
same,glycan array binding signal (z-score),[27],-0.383
same,glycan array binding signal (z-score),[28],-0.767
same,glycan array binding signal (z-score),[29],0.115
same,glycan array binding signal (z-score),[30],0.129
same,glycan array binding signal (z-score),[31],-0.974
same,glycan array binding signal (z-score),[32],-0.235
same,glycan array binding signal (z-score),[33],-0.079
same,glycan array binding signal (z-score),[34],-0.086
same,glycan array binding signal (z-score),[35],0.22

# Reformatted: results already given
binder	measurement	setting	value
B1	glycan array binding signal (z-score)	[5]	-0.324
same	glycan array binding signal (z-score)	GlcNAc(b1-3)GalNAc	-0.713
same	glycan array binding signal (z-score)	[6]	-0.657
